This is an account of results in publication PMC4800423.

For this assay, the target named is est2ΔCP-myc (S. cerevisiae) (UniProt Q06163). The assay is described as follows: co-IP; Myc-tagged est2ΔCP immunoprecipitated from lysates of strains co-expressing Est2-HA; TLC1 RNA in the immunoprecipitate measured by qRT-PCR as a proxy for Est2-HA.

No constants are given. Whether binding was seen depends on the method and setting. Binding seen in cells or lysates may run through a third protein. Tags and fused reporters may be left off the sequences shown.

B1: Est2-HA (wild type) (enzyme, UniProt Q06163 1-884)
chain: MKILFEFIQDKLDIDLQTNSTYKENLKCGHFNGLDEILTTCFALPNSRKIALPCLPGDLSHKAVIDHCIIYLLTGELYNNVLTFGYKIARNEDVNNSLFCHSANVNVTLLKGAAWKMFHSLVGTYAFVDLLINYTVIQFNGQFFTQIVGNRCNEPHLPPKWAQRSSSSSATAAQIKQLTEPVTNKQFLHKLNINSSSFFPYSKILPSSSSIKKLTDLREAIFPTNLVKIPQRLKVRINLTLQKLLKRHKRLNYVSILNSICPPLEGTVLDLSHLSRQSPKERVLKFIIVILQKLLPQEMFGSKKNKGKIIKNLNLLLSLPLNGYLPFDSLLKKLRLKDFRWLFISDIWFTKHNFENLNQLAICFISWLFRQLIPKIIQTFFYCTEISSTVTIVYFRHDTWNKLITPFIVEYFKTYLVENNVCRNHNSYTLSNFNHSKMRIIPKKSNNEFRIIAIPCRGADEEEFTIYKENHKNAIQPTQKILEYLRNKRPTSFTKIYSPTQIADRIKEFKQRLLKKFNNVLPELYFMKFDVKSCYDSIPRMECMRILKDALKNENGFFVRSQYFFNTNTGVLKLFNVVNASRVPKPYELYIDNVRTVHLSNQDVINVVEMEIFKTALWVEDKCYIREDGLFQGSSLSAPIVDLVYDDLLEFYSEFKASPSQDTLILKLADDFLIISTDQQQVINIKKLAMGGFQKYNAKANRDKILAVSSQSDDDTVIQFCAMHIFVKELEVWKHSSTMNNFHIRSKSSKGIFRSLIALFNTRISYKTIDTNLNSTNTVLMQIDHVVKNISECYKSAFKDLSINVTQNMQFHSFLQRIIEMTVSGCPITKCDPLIEYEVRFTILNGFLESLSSNTSKFKDNIILLRKEIQHLQAYIYIYIHIVN
On to B1, for which the binding entry is reported as “no binding”.
